Data source: PubChem BioAssay AID1259308 (NCATS, 2017)
Test: 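Genes whose loss raises luciferase production in HEK293 cells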 (primary screen). System: human HEK293 embryonic kidney cells stably expressing firefly luciferase (HEK-CMV-Luc2-Hygro). Knock-down reagent: single siRNA against human genes, 0.8 pmol siRNA per well. Timing: 72 h. Detection: 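Luciferase light (ONE-Glo) measured on one replicate plate set and viability (CellTiter-Glo) on the other, scaled to a negative control siRNA, with robust z-scores and luciferase per cell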. Reading the numbers: total luciferase, z-score and total luciferase, % of control: higher = more reporter protein produced; luciferase per cell, z-score: higher = more reporter output per viable cell; viable cells, % of control: higher = more viable cells. Rule for the call: 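An siRNA counts as active if its total luciferase robust z-score exceeds 3; genes with two or more such siRNAs out of three were retested with fresh siRNAs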. Meaning of the calls: active = raised luciferase; inactive = no rise.
Here is a random part of about 59,000 deposited reagents. Of all reagents, about 1,510 (2.6%) got an active call. 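Calls use total luciferase alone and ignore viability, so some active siRNAs may act by altering cell number.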 Unmarked entries are inactive. The numbers tell different reagents against one gene apart. No sequences are given here.

no.	Target gene	siRNA no.	total luciferase, z-score	total luciferase, % of control	luciferase per cell, z-score	viable cells, % of control
1	FAM90A27P	1	-2.18	38.6	-2.05	73.9
2	FAM90A27P	2	2.07	123	1.78	86
3	FAM90A27P	3	-0.693	68.1	0.0764	74.6
4	CTTNBP2	1	-1.9	44.1	-1.29	69.2
5	CTTNBP2	2	-1.2	57.9	-1.25	89.9
6	CTTNBP2	3	0.327	88.4	-0.57	115
7	CACHD1	1	0.141	84.7	0.826	76.1
8	CACHD1	2	1.93	120	1.12	100
9	CACHD1	3	0.113	84.1	-0.458	106
10	LOC646736	1	1.06	103	0.913	90.5
11	LOC646736	2	3.47 (active)	151	3.7	63.6
12	LOC646736	3	-2.71	27.9	-3.12	71
13	RELCH	1	-1.65	49.1	-2.53	107
14	RELCH	2	2.12	124	1.37	96.7
15	RELCH	3	-0.848	65	-0.962	93.6
16	MAPK6	1	0.908	99.9	1.48	75.6
17	MAPK6	2	1.72	116	1.07	97.9
18	MAPK6	3	0.751	96.8	0.817	87.2
19	ST6GALNAC2	1	-0.216	77.6	0.643	73.2
20	ST6GALNAC2	2	0.00182	81.9	0.0579	90.2
21	ST6GALNAC2	3	-1.46	52.8	-1.25	82.1
22	ADAM17	1	-0.972	62.5	-0.732	84.7
23	ADAM17	2	-0.0191	81.5	-0.194	95.9
24	ADAM17	3	-0.414	73.7	-0.765	101
25	ZNF281	1	0.0212	82.3	-0.651	109
26	ZNF281	2	0.417	90.2	0.265	94
27	ZNF281	3	0.434	90.5	0.885	80.1
28	PLCH2	1	1.05	103	0.708	95.3
29	PLCH2	2	1.73	116	1.36	90.7
30	PLCH2	3	0.0126	82.1	-0.681	110
31	CRYBG1	1	0.424	90.3	0.0493	99.6
32	CRYBG1	2	0.215	86.2	-0.0844	98.4
33	CRYBG1	3	0.951	101	0.621	95.7
34	LPAR1	1	0.932	100	1.47	76.3
35	LPAR1	2	-0.488	72.2	-0.961	104
36	LPAR1	3	2.62	134	1.1	112
37	PNPLA1	1	0.478	91.4	1.09	76.7
38	PNPLA1	2	-0.0982	79.9	0.0142	89
39	PNPLA1	3	-0.0171	81.5	0.548	78.9

Continued (4 carried over from the part before).
no.	Target gene	siRNA no.	total luciferase, z-score	total luciferase, % of control	luciferase per cell, z-score	viable cells, % of control
36	LPAR1	3	2.62	134	1.1	112
37	PNPLA1	1	0.478	91.4	1.09	76.7
38	PNPLA1	2	-0.0982	79.9	0.0142	89
39	PNPLA1	3	-0.0171	81.5	0.548	78.9
40	LINC01556	1	0.369	89.2	-0.151	104
41	LINC01556	2	-1.17	58.6	-0.73	79.4
42	LINC01556	3	-0.786	66.3	-0.816	91.8
43	TALDO1	1	-0.344	75	0.295	77.6
44	TALDO1	2	2.44	130	1.66	94.3
45	TALDO1	3	-0.662	68.7	-0.885	96.9
46	RALYL	1	2.48	131	1.34	103
47	RALYL	2	1.77	117	1.46	89.1
48	RALYL	3	-0.00525	81.8	-0.808	113
49	ZNF33A	1	-0.708	67.8	-0.648	89.9
50	ZNF33A	2	-1.24	57.3	0.0243	63.6
51	ZNF33A	3	1.25	107	1.68	76.6
52	POLD1	1	-0.479	72.4	-0.554	93.6
53	POLD1	2	0.885	99.5	1.84	68.5
54	POLD1	3	-0.458	72.8	0.592	69.6
55	IL33	1	-0.909	63.8	-1.23	98.5
56	IL33	2	-0.824	65.5	-1.19	100
57	IL33	3	-0.181	78.3	-0.257	93.6
58	KRTAP4-11	1	-0.659	68.8	-0.378	84.9
59	KRTAP4-11	2	1.66	115	2.03	75.1
60	KRTAP4-11	3	-1.43	53.4	-1.98	101
61	C14orf119	1	0.0191	82.3	-0.61	108
62	C14orf119	2	0.111	84.1	0.231	88.4
63	C14orf119	3	-0.682	68.3	-0.567	88.6
64	YIPF6	1	0.207	86	0.922	75.4
65	YIPF6	2	-0.566	70.6	-0.28	85
66	YIPF6	3	-0.882	64.3	-0.464	81.2
67	CENPN	1	-2.07	40.8	-1.85	74.1
68	CENPN	2	1.48	111	0.863	99.2
69	CENPN	3	-0.0467	81	1.48	61.3
70	OR5M3	1	0.296	87.8	0.0614	96.5
71	OR5M3	2	1.14	105	0.926	91.6
72	OR5M3	3	-0.0526	80.8	0.11	87.8
73	DSG1	1	-0.618	69.6	-1.62	119
74	DSG1	2	0.299	87.8	0.449	87.2
75	DSG1	3	-0.686	68.2	-1.02	99.7
